The experiment concerns the target TAR DNA-Binding Protein (TARDBP/TDP-43) (mouse (endogenous in mouse brain)) (UniProt Q921F2). Kind of experiment: co-IP.

Protein sequences, listed by entry. Tags and fused reporters are not part of them.
UniProt Q921F2: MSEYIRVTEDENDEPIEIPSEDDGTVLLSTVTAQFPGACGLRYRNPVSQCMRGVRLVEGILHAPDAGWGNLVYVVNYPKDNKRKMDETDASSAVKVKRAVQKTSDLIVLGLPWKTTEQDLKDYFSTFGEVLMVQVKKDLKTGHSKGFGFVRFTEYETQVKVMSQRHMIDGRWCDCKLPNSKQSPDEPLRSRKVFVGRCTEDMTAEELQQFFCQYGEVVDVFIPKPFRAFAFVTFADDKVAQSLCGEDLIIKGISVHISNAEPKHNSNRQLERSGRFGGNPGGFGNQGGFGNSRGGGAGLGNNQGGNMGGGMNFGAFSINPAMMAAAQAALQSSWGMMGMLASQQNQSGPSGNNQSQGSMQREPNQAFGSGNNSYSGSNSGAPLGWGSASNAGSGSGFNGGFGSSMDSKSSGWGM
UniProt P42859: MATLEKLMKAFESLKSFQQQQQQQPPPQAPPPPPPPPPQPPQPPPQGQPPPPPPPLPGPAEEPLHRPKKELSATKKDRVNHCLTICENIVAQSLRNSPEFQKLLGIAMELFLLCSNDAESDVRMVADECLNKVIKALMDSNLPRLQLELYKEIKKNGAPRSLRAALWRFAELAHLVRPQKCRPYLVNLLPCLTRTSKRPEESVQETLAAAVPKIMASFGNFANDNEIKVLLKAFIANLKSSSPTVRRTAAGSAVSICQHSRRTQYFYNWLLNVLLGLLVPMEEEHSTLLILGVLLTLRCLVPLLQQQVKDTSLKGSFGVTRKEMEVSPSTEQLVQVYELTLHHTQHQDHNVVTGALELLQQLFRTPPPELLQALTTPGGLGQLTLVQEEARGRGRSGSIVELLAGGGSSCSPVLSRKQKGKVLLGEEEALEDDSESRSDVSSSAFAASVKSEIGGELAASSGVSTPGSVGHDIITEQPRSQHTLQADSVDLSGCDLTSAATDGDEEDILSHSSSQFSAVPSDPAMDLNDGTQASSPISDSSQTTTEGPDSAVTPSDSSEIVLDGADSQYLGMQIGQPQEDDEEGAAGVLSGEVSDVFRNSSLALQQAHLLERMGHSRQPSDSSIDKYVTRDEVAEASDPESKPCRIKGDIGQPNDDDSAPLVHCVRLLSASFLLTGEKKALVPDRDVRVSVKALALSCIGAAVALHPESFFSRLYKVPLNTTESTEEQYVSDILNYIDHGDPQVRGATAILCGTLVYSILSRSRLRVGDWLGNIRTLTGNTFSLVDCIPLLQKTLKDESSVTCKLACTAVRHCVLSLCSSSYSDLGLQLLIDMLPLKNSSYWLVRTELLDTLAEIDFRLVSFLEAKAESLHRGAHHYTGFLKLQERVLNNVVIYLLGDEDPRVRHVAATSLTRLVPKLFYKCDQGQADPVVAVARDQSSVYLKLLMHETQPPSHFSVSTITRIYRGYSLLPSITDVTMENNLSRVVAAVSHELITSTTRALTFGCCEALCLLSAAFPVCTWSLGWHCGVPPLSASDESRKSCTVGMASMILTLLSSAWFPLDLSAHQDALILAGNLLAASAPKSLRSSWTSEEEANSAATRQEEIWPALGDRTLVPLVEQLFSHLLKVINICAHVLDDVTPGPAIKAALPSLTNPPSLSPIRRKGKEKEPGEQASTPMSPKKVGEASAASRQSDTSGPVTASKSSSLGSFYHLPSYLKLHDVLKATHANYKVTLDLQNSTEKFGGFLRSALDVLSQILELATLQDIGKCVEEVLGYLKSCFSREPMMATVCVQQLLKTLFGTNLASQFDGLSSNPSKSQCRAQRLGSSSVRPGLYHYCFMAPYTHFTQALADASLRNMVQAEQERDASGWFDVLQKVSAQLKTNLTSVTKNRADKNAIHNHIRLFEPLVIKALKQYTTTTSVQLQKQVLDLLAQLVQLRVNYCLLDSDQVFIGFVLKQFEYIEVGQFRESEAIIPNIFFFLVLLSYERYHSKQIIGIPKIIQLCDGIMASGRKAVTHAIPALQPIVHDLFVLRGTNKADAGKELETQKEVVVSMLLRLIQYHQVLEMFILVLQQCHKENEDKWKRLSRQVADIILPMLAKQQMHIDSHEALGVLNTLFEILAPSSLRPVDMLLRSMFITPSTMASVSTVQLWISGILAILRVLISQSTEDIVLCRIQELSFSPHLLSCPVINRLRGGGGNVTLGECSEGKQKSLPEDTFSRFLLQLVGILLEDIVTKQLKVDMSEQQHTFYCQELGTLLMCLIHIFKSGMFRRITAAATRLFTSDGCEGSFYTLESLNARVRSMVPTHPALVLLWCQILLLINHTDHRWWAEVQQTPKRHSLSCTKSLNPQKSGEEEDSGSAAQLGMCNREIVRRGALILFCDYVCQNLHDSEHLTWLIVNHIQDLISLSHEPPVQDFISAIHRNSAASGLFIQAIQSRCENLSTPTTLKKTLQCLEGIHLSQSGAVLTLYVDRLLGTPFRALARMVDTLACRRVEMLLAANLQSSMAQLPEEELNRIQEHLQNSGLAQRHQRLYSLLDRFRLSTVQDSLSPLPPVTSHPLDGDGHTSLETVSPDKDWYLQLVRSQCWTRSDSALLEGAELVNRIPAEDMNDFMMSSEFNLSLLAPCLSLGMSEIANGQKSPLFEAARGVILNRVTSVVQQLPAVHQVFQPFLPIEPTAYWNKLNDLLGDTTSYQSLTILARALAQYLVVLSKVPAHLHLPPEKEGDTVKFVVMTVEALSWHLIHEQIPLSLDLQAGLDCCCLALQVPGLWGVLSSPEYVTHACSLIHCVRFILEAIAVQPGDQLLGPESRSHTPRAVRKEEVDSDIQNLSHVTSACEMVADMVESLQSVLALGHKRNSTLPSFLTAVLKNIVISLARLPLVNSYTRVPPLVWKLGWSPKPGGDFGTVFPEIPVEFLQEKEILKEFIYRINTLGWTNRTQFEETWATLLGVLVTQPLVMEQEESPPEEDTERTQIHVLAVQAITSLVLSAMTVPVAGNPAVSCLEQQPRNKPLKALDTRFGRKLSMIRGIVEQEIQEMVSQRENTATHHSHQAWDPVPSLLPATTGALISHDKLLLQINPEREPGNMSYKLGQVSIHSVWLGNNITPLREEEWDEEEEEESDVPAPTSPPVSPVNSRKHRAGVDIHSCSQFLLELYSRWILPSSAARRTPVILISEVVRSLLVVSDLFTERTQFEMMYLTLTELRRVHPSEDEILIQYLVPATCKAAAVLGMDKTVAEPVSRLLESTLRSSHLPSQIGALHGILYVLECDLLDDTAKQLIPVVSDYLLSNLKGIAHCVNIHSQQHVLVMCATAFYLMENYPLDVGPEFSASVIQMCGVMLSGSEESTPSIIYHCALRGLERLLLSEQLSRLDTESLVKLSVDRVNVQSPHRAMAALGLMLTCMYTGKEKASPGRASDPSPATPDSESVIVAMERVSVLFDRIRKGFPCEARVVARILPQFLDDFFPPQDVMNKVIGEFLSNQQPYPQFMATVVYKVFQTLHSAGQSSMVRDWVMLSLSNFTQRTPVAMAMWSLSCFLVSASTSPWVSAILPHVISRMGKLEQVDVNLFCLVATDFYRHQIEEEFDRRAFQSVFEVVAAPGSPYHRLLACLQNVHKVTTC

The source of these data is doi:10.1101/2023.10.31.565004.

These are yes or no findings as the source states them, for the method shown. In cells and extracts the contact can be indirect. Some entries that bind do so weakly or less than the wild type.

As to “mouse full-length HTT (FL-HTT) (from UniProt P42859 1-3119)”, the binding result is reported as “binds”.
